Assay results: paper PMC12155415
Results are given in words; binding and its absence hold for the method and conditions named. In cells and extracts the contact can be indirect. A yes stands for co-enrichment or nearness to the bait. Other partners may have been found.

Sequences of proteins named here, by UniProt entry; tags and fusion partners are left off.
UniProt Q92598: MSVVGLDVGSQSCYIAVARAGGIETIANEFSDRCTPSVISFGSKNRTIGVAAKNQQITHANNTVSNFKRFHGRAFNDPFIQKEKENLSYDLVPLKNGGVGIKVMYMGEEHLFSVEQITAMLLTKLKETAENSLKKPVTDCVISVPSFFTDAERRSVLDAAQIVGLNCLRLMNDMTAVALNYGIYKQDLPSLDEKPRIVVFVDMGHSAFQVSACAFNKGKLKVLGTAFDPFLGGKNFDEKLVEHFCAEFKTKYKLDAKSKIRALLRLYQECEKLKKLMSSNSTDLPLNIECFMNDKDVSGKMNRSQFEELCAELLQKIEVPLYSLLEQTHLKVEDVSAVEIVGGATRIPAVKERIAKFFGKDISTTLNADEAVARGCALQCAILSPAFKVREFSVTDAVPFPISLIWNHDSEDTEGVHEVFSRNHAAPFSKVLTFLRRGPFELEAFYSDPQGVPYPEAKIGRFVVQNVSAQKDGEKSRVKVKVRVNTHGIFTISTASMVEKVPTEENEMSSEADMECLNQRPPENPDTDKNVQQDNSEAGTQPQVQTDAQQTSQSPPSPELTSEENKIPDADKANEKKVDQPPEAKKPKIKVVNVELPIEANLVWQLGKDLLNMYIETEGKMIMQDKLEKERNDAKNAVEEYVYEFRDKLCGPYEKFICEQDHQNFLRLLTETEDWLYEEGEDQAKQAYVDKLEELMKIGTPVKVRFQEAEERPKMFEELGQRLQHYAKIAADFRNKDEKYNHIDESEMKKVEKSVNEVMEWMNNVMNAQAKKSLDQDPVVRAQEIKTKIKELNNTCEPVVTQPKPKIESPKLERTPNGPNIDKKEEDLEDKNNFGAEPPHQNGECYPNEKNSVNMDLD
UniProt Q9NRL2: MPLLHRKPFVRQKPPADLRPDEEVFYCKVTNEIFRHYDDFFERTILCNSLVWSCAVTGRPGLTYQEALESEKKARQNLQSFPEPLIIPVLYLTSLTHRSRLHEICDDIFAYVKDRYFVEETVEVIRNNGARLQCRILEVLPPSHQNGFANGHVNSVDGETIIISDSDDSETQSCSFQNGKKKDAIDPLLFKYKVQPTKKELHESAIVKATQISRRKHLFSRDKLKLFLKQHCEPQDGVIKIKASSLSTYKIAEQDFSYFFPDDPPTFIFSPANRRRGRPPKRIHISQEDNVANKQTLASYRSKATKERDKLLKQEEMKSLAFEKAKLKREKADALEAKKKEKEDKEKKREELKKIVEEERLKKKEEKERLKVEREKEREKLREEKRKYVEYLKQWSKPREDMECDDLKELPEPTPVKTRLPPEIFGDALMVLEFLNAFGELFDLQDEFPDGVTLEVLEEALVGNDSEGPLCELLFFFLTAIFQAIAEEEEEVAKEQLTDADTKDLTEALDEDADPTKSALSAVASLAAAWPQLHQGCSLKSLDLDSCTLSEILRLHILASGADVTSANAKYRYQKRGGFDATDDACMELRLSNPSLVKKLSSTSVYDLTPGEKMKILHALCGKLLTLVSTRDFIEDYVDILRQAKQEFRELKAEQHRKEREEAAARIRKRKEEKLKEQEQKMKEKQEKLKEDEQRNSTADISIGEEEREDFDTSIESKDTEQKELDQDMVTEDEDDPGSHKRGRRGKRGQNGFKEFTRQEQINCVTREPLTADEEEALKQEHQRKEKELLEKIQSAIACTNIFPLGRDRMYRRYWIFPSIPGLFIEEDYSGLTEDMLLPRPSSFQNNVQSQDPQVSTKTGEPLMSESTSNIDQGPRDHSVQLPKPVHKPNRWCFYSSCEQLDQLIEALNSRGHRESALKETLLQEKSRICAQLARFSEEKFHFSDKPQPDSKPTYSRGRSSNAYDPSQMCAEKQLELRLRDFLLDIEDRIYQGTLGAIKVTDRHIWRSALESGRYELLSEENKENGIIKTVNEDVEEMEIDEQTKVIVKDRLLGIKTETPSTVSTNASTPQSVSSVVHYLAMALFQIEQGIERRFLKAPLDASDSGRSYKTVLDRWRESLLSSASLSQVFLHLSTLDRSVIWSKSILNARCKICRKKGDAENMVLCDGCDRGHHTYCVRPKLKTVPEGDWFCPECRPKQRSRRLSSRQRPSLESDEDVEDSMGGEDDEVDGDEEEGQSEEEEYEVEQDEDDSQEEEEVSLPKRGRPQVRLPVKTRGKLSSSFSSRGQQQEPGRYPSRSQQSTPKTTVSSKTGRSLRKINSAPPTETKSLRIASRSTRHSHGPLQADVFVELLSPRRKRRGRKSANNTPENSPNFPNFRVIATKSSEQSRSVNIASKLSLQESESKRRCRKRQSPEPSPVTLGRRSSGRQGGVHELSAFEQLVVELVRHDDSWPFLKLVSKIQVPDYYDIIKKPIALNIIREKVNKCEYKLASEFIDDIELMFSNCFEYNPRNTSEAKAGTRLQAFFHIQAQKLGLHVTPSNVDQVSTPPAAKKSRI
UniProt O43150: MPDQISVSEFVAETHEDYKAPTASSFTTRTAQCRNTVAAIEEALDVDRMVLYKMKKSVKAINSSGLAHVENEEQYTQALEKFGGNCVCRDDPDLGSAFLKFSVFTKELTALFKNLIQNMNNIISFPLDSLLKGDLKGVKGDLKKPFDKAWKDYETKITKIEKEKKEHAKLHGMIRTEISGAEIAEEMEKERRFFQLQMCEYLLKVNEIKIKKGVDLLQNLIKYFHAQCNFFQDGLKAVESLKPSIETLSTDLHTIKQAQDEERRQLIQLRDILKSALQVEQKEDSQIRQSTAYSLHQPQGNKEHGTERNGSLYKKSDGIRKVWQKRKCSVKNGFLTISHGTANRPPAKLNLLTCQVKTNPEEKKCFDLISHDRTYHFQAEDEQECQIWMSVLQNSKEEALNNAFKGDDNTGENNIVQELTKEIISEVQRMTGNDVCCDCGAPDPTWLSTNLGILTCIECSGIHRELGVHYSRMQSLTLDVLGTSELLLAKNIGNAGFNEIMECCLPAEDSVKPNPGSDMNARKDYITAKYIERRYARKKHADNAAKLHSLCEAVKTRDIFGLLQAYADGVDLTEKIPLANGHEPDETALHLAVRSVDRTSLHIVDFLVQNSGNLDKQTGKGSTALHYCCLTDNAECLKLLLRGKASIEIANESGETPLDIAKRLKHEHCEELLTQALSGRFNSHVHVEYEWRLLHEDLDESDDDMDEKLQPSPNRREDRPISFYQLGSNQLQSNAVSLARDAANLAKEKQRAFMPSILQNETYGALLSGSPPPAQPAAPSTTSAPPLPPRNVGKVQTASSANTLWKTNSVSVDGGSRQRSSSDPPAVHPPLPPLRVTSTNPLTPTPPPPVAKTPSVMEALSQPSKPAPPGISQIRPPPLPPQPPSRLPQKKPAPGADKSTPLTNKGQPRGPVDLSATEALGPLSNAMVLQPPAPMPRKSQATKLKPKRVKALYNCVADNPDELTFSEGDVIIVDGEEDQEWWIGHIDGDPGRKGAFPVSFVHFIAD
UniProt P51114: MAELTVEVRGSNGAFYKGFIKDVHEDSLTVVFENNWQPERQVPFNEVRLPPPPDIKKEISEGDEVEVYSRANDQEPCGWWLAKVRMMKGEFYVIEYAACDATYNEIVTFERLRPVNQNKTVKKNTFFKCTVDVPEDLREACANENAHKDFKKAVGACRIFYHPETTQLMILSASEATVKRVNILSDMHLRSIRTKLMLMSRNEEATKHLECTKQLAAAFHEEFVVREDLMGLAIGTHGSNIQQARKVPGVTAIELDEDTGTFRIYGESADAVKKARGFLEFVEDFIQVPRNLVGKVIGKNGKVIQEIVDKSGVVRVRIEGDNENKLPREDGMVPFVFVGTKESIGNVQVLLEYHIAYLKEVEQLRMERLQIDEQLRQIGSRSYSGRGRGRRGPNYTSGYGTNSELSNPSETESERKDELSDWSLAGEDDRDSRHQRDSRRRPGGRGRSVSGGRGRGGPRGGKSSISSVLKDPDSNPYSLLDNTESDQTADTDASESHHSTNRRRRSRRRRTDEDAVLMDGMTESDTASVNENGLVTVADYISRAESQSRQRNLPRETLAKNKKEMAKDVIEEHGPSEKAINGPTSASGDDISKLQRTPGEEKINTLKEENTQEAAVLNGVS
UniProt Q86U86: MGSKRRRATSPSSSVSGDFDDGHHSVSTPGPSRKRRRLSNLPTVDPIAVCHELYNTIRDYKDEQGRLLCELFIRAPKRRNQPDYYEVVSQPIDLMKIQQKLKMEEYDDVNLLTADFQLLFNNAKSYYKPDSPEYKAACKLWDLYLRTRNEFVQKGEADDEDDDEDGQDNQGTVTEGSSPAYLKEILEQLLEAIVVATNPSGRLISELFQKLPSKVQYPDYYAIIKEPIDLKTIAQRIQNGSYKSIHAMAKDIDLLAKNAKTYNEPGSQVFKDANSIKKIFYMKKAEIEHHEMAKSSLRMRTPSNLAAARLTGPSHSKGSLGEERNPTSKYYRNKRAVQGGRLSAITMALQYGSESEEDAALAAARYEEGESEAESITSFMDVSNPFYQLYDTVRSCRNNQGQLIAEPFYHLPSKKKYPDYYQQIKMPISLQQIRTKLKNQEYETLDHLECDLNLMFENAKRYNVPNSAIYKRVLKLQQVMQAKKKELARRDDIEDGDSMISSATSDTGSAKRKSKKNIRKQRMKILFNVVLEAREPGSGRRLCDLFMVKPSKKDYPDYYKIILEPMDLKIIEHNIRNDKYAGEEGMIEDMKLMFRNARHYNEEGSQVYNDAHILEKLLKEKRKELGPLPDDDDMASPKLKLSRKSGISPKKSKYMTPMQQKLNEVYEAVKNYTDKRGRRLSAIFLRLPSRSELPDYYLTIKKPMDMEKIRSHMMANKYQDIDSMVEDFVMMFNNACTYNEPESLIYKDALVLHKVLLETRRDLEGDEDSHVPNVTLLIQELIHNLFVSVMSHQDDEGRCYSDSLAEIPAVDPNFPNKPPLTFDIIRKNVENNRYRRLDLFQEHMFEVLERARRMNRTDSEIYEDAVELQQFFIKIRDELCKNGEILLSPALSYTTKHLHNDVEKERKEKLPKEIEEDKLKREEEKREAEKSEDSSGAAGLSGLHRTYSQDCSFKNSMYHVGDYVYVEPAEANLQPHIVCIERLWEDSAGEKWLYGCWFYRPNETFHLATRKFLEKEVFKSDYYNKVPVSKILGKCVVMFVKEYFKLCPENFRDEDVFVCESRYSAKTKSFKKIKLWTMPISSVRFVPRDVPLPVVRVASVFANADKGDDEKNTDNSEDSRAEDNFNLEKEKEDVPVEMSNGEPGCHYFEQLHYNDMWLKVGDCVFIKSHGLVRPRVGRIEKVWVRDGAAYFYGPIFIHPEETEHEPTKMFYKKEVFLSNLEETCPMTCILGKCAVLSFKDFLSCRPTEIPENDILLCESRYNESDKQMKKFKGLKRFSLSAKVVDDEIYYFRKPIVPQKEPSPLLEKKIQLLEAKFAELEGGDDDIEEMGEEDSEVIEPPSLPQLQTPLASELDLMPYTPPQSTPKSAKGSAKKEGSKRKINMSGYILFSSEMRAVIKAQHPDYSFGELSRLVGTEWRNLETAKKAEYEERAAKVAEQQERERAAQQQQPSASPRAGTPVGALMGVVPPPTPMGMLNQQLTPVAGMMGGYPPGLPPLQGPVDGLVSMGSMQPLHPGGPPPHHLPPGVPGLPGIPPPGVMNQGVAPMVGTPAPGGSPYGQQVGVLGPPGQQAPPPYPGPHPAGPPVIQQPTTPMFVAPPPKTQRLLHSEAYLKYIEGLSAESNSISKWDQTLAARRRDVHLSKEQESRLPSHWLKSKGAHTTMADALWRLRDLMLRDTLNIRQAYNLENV
UniProt Q969G3: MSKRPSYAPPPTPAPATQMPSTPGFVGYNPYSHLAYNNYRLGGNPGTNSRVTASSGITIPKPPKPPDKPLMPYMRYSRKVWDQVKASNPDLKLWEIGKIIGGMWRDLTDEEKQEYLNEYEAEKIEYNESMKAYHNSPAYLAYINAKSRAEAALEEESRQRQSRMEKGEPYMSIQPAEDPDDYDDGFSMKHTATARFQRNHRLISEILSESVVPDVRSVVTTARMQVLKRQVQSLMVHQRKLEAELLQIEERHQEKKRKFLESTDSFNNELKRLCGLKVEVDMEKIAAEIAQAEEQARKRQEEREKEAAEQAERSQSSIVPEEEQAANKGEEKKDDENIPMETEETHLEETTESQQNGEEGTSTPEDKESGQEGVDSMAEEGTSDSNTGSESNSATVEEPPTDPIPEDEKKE
UniProt P31943: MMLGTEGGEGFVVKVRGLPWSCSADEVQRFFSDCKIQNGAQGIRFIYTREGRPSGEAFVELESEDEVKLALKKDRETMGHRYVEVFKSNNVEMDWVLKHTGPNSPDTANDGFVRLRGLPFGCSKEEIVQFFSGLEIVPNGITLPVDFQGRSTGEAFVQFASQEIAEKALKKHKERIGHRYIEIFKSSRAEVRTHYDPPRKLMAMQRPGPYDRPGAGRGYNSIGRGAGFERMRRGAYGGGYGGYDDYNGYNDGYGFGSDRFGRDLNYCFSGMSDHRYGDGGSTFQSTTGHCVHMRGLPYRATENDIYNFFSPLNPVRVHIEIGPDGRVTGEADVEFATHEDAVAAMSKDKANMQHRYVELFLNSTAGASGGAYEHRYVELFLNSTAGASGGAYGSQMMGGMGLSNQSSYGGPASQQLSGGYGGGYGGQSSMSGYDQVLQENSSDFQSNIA

Target: HSP110 (endogenous, SW480 cells) (human (endogenous in SW480)) (UniProt Q92598)
Assay: affinity purification with mass spectrometry; anti-HSP110 antibody (control IgG) with protein A/G agarose on the nuclear-enriched fraction of SW480 cells, untreated or 200 µM TMZ for 48 h; in-gel trypsin digest, ESI-TRAP (LTQ-Orbitrap Elite), Mascot

| Molecule | binding |
| --- | --- |
| ABP1 (from UniProt P11940 1-636) | binds |
| ACF1/BAZ1A (from UniProt Q9NRL2 1-1556) | binds |
| ASAP2/PAP (from UniProt O43150 1-1006) | binds |
| DNA-PKcs/DNPK1 (from UniProt P78527 1-4128) | binds |
| FXR1 (from UniProt P51114 1-621) | binds |
| Gα12 (from UniProt Q03113 1-381) | binds |
| HSP70 (from UniProt P17066 1-643) | binds |
| KRas (from UniProt P01116 1-189) | binds |
| Nucleophosmin (from UniProt P06748 1-294) | binds |
| PBRM1/BAF180 (from UniProt Q86U86 1-1689) | binds |
| SMARCB1/SNF5 (from UniProt Q12824 1-385) | binds |
| SMARCC2/BAF170 (endogenous, SW480 cells) (from UniProt Q8TAQ2 1-1214) | binds |
| SMARCE1/BAF57 (from UniProt Q969G3 1-411) | binds |
| hnRNP H (from UniProt P31943 1-449) | binds |
| hnRNP K (from UniProt P61978 1-463) | binds |
| αCP3 (from UniProt P57721 1-371) | binds |
| hnRNP A0 (protein, UniProt Q13151 1-305) MENSQLCKLFIGGLNVQTSESGLRGHFEAFGTLTDCVVVVNPQTKRSRCFGFVTYSNVEEADAAMAASPHAVDGNTVELKRAVSREDSARPGAHAKVKKLFVGGLKGDVAEGDLIEHFSQFGTVEKAEIIADKQSGKKRGFGFVYFQNHDAADKAAVVKFHPIQGHRVEVKKAVPKEDIYSGGGGGGSRSSRGGRGGRGRGGGRDQNGLSKGGGGGYNSYGGYGGGGGGGYNAYGGGGGGSSYGGSDYGNGFGGFGSYSQHQSSYGPMKSGGGGGGGGSSWGGRSNSGPYRGGYGGGGGYGGSSF | binds |
| hnRNP M (protein, UniProt P52272 1-730) MAAGVEAAAEVAATEIKMEEESGAPGVPSGNGAPGPKGEGERPAQNEKRKEKNIKRGGNRFEPYANPTKRYRAFITNIPFDVKWQSLKDLVKEKVGEVTYVELLMDAEGKSRGCAVVEFKMEESMKKAAEVLNKHSLSGRPLKVKEDPDGEHARRAMQKVMATTGGMGMGPGGPGMITIPPSILNNPNIPNEIIHALQAGRLGSTVFVANLDYKVGWKKLKEVFSMAGVVVRADILEDKDGKSRGIGTVTFEQSIEAVQAISMFNGQLLFDRPMHVKMDERALPKGDFFPPERPQQLPHGLGGIGMGLGPGGQPIDANHLNKGIGMGNIGPAGMGMEGIGFGINKMGGMEGPFGGGMENMGRFGSGMNMGRINEILSNALKRGEIIAKQGGGGGGGSVPGIERMGPGIDRLGGAGMERMGAGLGHGMDRVGSEIERMGLVMDRMGSVERMGSGIERMGPLGLDHMASSIERMGQTMERIGSGVERMGAGMGFGLERMAAPIDRVGQTIERMGSGVERMGPAIERMGLSMERMVPAGMGAGLERMGPVMDRMATGLERMGANNLERMGLERMGANSLERMGLERMGANSLERMGPAMGPALGAGIERMGLAMGGGGGASFDRAIEMERGNFGGSFAGSFGGAGGHAPGVARKACQIFVRNLPFDFTWKMLKDKFNECGHVLYADIKMENGKSKGCGVVKFESPEVAERACRMMNGMKLSGREIDVRIDRNA | binds |
| COAA or RNA-BP14 (protein, UniProt Q96PK6 1-669) MKIFVGNVDGADTTPEELAALFAPYGTVMSCAVMKQFAFVHMRENAGALRAIEALHGHELRPGRALVVEMSRPRPLNTWKIFVGNVSAACTSQELRSLFERRGRVIECDVVKDYAFVHMEKEADAKAAIAQLNGKEVKGKRINVELSTKGQKKGPGLAVQSGDKTKKPGAGDTAFPGTGGFSATFDYQQAFGNSTGGFDGQARQPTPPFFGRDRSPLRRSPPRASYVAPLTAQPATYRAQPSVSLGAAYRAQPSASLGVGYRTQPMTAQAASYRAQPSVSLGAPYRGQLASPSSQSAAASSLGPYGGAQPSASALSSYGGQAAAASSLNSYGAQGSSLASYGNQPSSYGAQAASSYGVRAAASSYNTQGAASSLGSYGAQAASYGAQSAASSLAYGAQAASYNAQPSASYNAQSAPYAAQQAASYSSQPAAYVAQPATAAAYASQPAAYAAQATTPMAGSYGAQPVVQTQLNSYGAQASMGLSGSYGAQSAAAATGSYGAAAAYGAQPSATLAAPYRTQSSASLAASYAAQQHPQAAASYRGQPGNAYDGAGQPSAAYLSMSQGAVANANSTPPPYERTRLSPPRASYDDPYKKAVAMSKRYGSDRRLAELSDYRRLSESQLSFRRSPTKSSLDYRRLPDAHSDYARYSGSYNDYLRAAQMHSGYQRRM | binds |
| CFA/TBCA (protein, UniProt O75347 1-108) MADPRVRQIKIKTGVVKRLVKEKVMYEKEAKQQEEKIEKMRAEDGENYDIKKQAEILQESRMMIPDCQRRLEAAYLDLQRILENEKDLEEAEEYKEARLVLDSVKLEA | binds |
